This assay in a line: qHTS Assay for Modulators of Lamin A Splicing. As to conditions: HeLa LMNA splicing GFP/RFP minigene ratio, 48 h. The method, boiled down:
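Read-out is the ratio of GFP to DsRed2 object intensity, acquired by 488 nm laser-scanning cytometry on HeLa lamin A-EGFP minigene reporter cells. Compound incubation 48 hrs at 37 °C in Opti-MEM with 2% FBS; DMSO 0.5% final.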
A general note: qHTS replaces the single test concentration by a dilution series.

Where [1] appears, read: measured here: RFP viability control channel.
The mark [2] stands for this setting: measured here: GFP splicing reporter channel.

This is one part of the list. Shown are side measurements of this screen, not its main read-out; they come without a call. Compounds called inactive in the main read-out are mostly missing here. Potencies come from curve fits of mixed quality, noted in brackets.

Usually AC50 stands for the concentration at which the activity in the assay is half-maximal. On to `Cc1ccc(C)c(NC(=O)CSc2nnc(Cc3cccn3C)n2-c2ccc(F)cc2)c1`, for which the AC50 under setting [1] is 35.5 µM [rising, single point].

In the case of `CC(=O)Nc1ccc(S(=O)(=O)NCc2ccc3[nH]c(C)cc3c2)cc1`, under setting [1], the AC50 was 20 µM [rising, partial curve, poor fit].

For `Cc1cc(C)c2nc(NC(=O)c3ccc4c(=O)n5c(nc4c3)CCCCC5)sc2c1`, the AC50 under setting [1] was 3.16 µM [rising, single point].

With `CCOC(=O)CN(c1ccccc1)S(=O)(=O)c1ccc(F)cc1`, the AC50 under setting [1] was 1.12 µM [falling, partial curve, poor fit].

On to `O=C1C2C(c3ccccc3)(C(=O)N1c1ccc(Cl)cc1)C2(c1ccccc1)c1ccccc1` (stereo not drawn), for which, under setting [1], the AC50 was 2.82 µM [rising, partial curve].

Turning to `Cc1ccc(-n2nc(C)c3c(=O)[nH]c(C(F)(F)F)nc32)cc1`, the AC50 is 25.1 µM [rising, partial curve, poor fit] under setting [2] and 3.55 µM [rising, partial curve, poor fit] under setting [1].

`CCCCC1=CC2=C(c3ccco3)C(=O)C(C)(OC(=O)c3ccc(OC)cc3)C(=O)C2=CN1CCc1ccccn1` (stereo not drawn): under setting [1], the AC50 was 3.55 µM [falling, single point].

Consider `COc1ccc(-c2nc3c4ccccc4n(CC(=O)Nc4ccc(C(C)C)cc4)c(=O)n3n2)cc1`, for which, under setting [2], the AC50 was 35.5 µM [rising, single point].

In the case of `Nc1nn(-c2ccccc2)c(N)c1N=Nc1ccccc1`, the AC50 runs as follows: under setting [2], 31.6 µM [rising, single point]; under setting [1], 11.2 µM [rising, partial curve].

`CC[N+](CC)(CC#Cc1ccccc1)CC(=O)c1ccc(Cl)cc1`: under setting [1], the AC50 was 14.1 µM [rising, single point].

For the compound `CC/C(=C1/C(=O)CC(C)(C)C(C(=O)OC)C1=O)N1CCCC1` (stereo not drawn), the AC50 under setting [2] was 5.62 µM [rising, single point].

On to `CCc1sc(Nc2cccc(C)c2)nc1-c1cc2cccc(OC)c2oc1=O`, for which, under setting [1], the AC50 was 5.62 µM [falling, partial curve].

Take `COc1cc(OC)cc(C(=O)NCC(=O)N2CCC(C)CC2)c1`: the AC50 under setting [2] was 1.12 µM [rising, full curve].

For the compound `OCCOCCN1CCN(C2=Nc3ccccc3Sc3ccccc32)CC1`, the AC50 was 0.794 µM [falling, single point] under setting [2] and 35.5 µM [falling, single point] under setting [1].

On to `Oc1ccc2ccc3[nH]cnc3c2c1`, for which the AC50 under setting [1] was 0.178 µM [falling, full curve, poor fit].

Turning to `COCC(C)n1c(-c2ccc3c(c2)NC(=O)CO3)csc1=Nc1ccc(OC(F)F)cc1` (stereo not drawn), the half-maximal activity concentration (AC50) was 5.01 µM [rising, single point] under setting [2] and 3.55 µM [rising, single point] under setting [1].

With `COc1cc2cc(/C=C/C(=O)c3ccco3)c(Cl)nc2cc1OC`, the AC50 was 35.5 µM [falling, single point] under setting [2] and 35.5 µM [falling, single point] under setting [1].

For `COc1ccc(CNc2nc(-c3cccnc3)nn2C(C)=O)cc1`, the AC50 under setting [1] is 0.891 µM [falling, full curve, poor fit].

In the case of `COc1cccc(CNC(=O)c2cccc(Br)c2)c1`, the AC50 under setting [1] was 15.8 µM [rising, single point].

With `C=CCc1c(C)[nH]c2c(OC)cccc2c1=S`, the AC50 under setting [2] is 35.5 µM [falling, single point].

Turning to `O=C1C(NS(=O)(=O)c2cccs2)=C(N2CCN(c3cccc(C(F)(F)F)c3)CC2)C(=O)c2ccccc21`, the AC50 under setting [2] was 35.5 µM [rising, single point] and the AC50 under setting [1] was 35.5 µM [rising, single point].

In the case of `COc1ccccc1C(=O)N1CCN(Cc2cn[nH]c2-c2ccc(F)cc2F)CC1`, under setting [2], the AC50 is 10 µM [falling, partial curve, poor fit].

On to `COc1ccc(-c2[nH]ncc2CN2CCN(c3ccc(F)cc3)CC2)cc1`, for which the AC50 under setting [1] was 0.00447 µM [falling, full curve, poor fit].

For `O=c1c(N2CCN(c3ccccc3)CC2)csc2ccc(Cl)cc12`, the AC50 under setting [2] was 8.91 µM [falling, partial curve, poor fit].

For `CCOC(=O)C1Cn2c(nc3c(c2=O)C(C)(CC)Cc2ccccc2-3)S1` (stereo not drawn), the AC50 under setting [1] is 31.6 µM [rising, single point].

For the compound `O=C(CCSCc1cccc(Cl)c1)NCc1ccccc1Cl`, under setting [2], the AC50 is 0.398 µM [falling, full curve].

For the compound `COc1ccc(NC(=O)CSc2nc3c(cc2C#N)CN(C)CC3)cc1`, the AC50 was 14.1 µM [rising, single point] under setting [2] and 35.5 µM [rising, single point] under setting [1].

In the case of `CCN1c2ccccc2-n2cccc2C12CCN(C(=O)Nc1ccccc1Br)CC2`, the AC50 is, setting by setting: under setting [2], 3.55 µM [rising, single point]; under setting [1], 3.55 µM [rising, single point].

With `CC(C)CN1CCN(Cc2nc3ccccc3s2)CC1CCO` (stereo not drawn), the concentration at half-maximal activity (AC50) under setting [2] was 22.4 µM [falling, single point] and the half-maximal activity concentration (AC50) under setting [1] was 35.5 µM [falling, partial curve, poor fit].

In the case of `N#CC1=C(N)SC(N)=C(C#N)C1c1cccc(Oc2ccccc2)c1`, the AC50 under setting [1] is 31.6 µM [rising, single point].

As to `CCOCCCNC(=O)CNC(=S)N(Cc1ccccc1F)C1CCCCC1`, the AC50 runs as follows: under setting [2], 2.51 µM [falling, partial curve]; under setting [1], 1.58 µM [falling, partial curve, poor fit].

On to `CCOc1cc2[nH]c(=O)n(Cc3ccc(C(=O)N4CCN(c5ccccc5)CC4)cc3)c(=O)c2cc1OCC`, for which the concentration at half-maximal activity (AC50) was 10 µM [falling, partial curve, poor fit] under setting [2] and 12.6 µM [falling, partial curve, poor fit] under setting [1].

`CCC/C(O)=C1\C(=O)CC(C)(C)CC1=Nc1ccc(OC)cc1OC`: the AC50 under setting [1] is 12.6 µM [rising, partial curve].

Consider `Cc1nc(-c2ccc(Cl)cc2)sc1CCNC(=O)C(=O)Nc1ccc2c(c1)OCCO2`, for which the AC50 under setting [2] was 3.55 µM [falling, partial curve] and the AC50 under setting [1] was 31.6 µM [falling, partial curve, poor fit].

In the case of `COc1cc(/C=C/C(=O)c2ccc(C)c([N+](=O)[O-])c2)cc(OC)c1O`, the AC50 was 35.5 µM [falling, single point] under setting [2] and 35.5 µM [falling, single point] under setting [1].

These data come from PubChem BioAssay AID1487 (National Center for Advancing Translational Sciences (NCATS), 2009).
